Source: PubChem BioAssay AID602346 (Broad Institute, 2012)
The campaign covered roughly 340,000 compounds. About 1,200 (0.35%) were called active. Inconclusive results, whose numbers are uncertain, are shown with a selection of clear calls. Rule as the data show it: active = inhibition above about 50% (passing the limit was not always enough); inconclusive = no clear call, values can overlap the other calls; inactive = below about 31%.

Assay: blockers of Vif multimerization in cells – imaging, HEK293T, single point, primary screen (AID 602346)
Settings: Vif self-association by quenched fluorescence, 24 h, at 7.49 µM, stronger effect = higher value
For `Cc1ccc(C(=O)NCc2ccc(F)cc2)s1`, the inhibition was inconclusive: 39.3%. With `O=C(c1ccc([N+](=O)[O-])cc1)N(Cc1cccs1)C1CCS(=O)(=O)C1` (stereo not drawn) the inhibition was inconclusive: 39.3%. With `CCN(C(=O)COc1ccc(C)cc1OC)c1cccc2ccccc12` the inhibition was active: 56.6%. For `COc1ccc(-c2nnc(SCc3nc4ccccc4c(=O)[nH]3)o2)cc1`, the inhibition was active: 52.1%. With `COc1ccccc1C(=O)COC(=O)C1(C)CC1(Cl)Cl` (stereo not drawn) the inhibition was active: 71%. In the case of `CCN(c1ccccc1)c1nc(Cl)nc2c1cnn2C`, the inhibition was inconclusive: 31%. With `COc1ccccc1C(=O)NCCCNC(=O)c1ccccn1` the inhibition was inconclusive: 37.8%. With `O=c1[nH]cnc2c1sc1nc(C(F)F)cc(-c3ccccc3)c12` the inhibition was inconclusive: 41.1%. With `COc1cc(O)oc1C=Nc1ccc(C(=O)O)cc1` the inhibition was inactive: 10.3%. For `COc1ccccc1N1CCN(Cc2ccc(OC)c3ccccc23)CC1`, the inhibition was active: 112%. In the case of `N#Cc1c(-c2cccs2)cc(-c2cccs2)[nH]c1=O`, the inhibition was active: 51%. For `COc1cc(CNCCCN2CCOCC2)cc(Br)c1OCc1ccc(Cl)cc1`, the inhibition was inconclusive: 40%. With `C/C(=N/NC(=O)c1ccco1)c1ccc(NC(=O)c2ccc(Br)o2)cc1` the inhibition was inactive: 1.08%. For `O=C(N/N=C/c1ccco1)c1ccc(OCc2ccccc2)cc1`, the inhibition was inactive: -0.993%. In the case of `COc1ccc(OC)c(-c2nnc(SCC(=O)N3CCOCC3)o2)c1`, the inhibition was inconclusive: 23.9%. With `Nc1c2c(nc3ccccc13)N(C1CCCCC1)CC2` the inhibition was inconclusive: 33.4%. With `C=CCNc1nc2cc(-c3ccccc3OC)sc2c(=O)n1C` the inhibition was inactive: -0.4%. In the case of `CCC(Sc1nc2ccsc2c(=O)n1CCC(=O)O)C(=O)Nc1ccc(Cl)cc1` (stereo not drawn), the inhibition was inconclusive: 30.7%. For `Cc1noc(C)c1C(=O)NCC(=O)Nc1ccccc1Br`, the inhibition was inconclusive: 19.4%. In the case of `CC(C(=O)N1CCCc2c1c(=O)oc1ccc(O)cc21)N1CCc2ccccc2C1` (stereo not drawn), the inhibition was inactive: -10.8%. In the case of `CCOC(=O)C1=C(C)NC(=S)NC1c1ccc(C)s1` (stereo not drawn), the inhibition was inactive: 6.17%. With `COc1cc(OC)c(OC)cc1/C=N/NC(=O)CCc1c(C)n[nH]c1C` the inhibition was inconclusive: 48.9%. With `Cc1ccc(Nc2nc(N)nc(CSc3nnc(-c4ccncc4)o3)n2)cc1` the inhibition was active: 83%. For `CSc1ccccc1C(=O)OCC(=O)N1CCN(C(C)=O)CC1`, the inhibition was inconclusive: 37.3%. With `CCc1c(C)nc(SCC(=O)Nc2c(C)n(C)n(-c3ccccc3)c2=O)[nH]c1=O` the inhibition was inconclusive: 33.6%. In the case of `O=C(NC(=S)NNC(=O)c1ccccc1O)c1ccc(F)cc1`, the inhibition was inactive: -3.29%. For `O=C(Nc1ccccc1)C1=C[C@@H](C2CCCCC2)C[C@@H](OCc2ccc(CO)cc2)O1`, the inhibition was inconclusive: 33.8%. In the case of `CC1Oc2ccccc2N(CC(=O)N2CCCC2)C1=O` (stereo not drawn), the inhibition was inactive: 3.91%. For `CCCc1nnc(NC(=O)CS(=O)(=O)c2ccccc2)s1`, the inhibition was inconclusive: 47.8%. With `CCOC(=O)c1ccc(NC(=O)COc2ccc(S(=O)(=O)N3CCCC3)cc2)cc1` the inhibition was inconclusive: 43.1%. In the case of `NC(=O)NC(c1ccc(Cl)cc1)c1ccccc1Cl` (stereo not drawn), the inhibition was inactive: -4.73%. In the case of `CCOC(=O)C1=C(C)NC(=O)NC1`, the inhibition was active: 74.3%. For `CCOC(=O)c1[nH]c(C)c(C(=O)Nc2cc(OC)ccc2OC)c1C`, the inhibition was active: 53.9%. For `CCCN(CC1COc2ccccc2O1)C(=S)Nc1ccc(C)cc1` (stereo not drawn), the inhibition was inconclusive: 36.3%. For `O=C(O)c1ccc(CNC(=O)c2ccccc2NC(=O)c2ccc([N+](=O)[O-])cc2)cc1`, the inhibition was inactive: 0.893%. In the case of `Nn1c(Cc2cccc3ccccc23)nnc1SCc1ccccc1Cl`, the inhibition was inconclusive: 26.1%. In the case of `CC(=O)N/N=C\c1ccccc1OC/C=C/c1ccccc1`, the inhibition was inactive: 7.82%. With `COc1c(Br)cc(Br)cc1/C=C1/C(=O)N=C(N)N1C` the inhibition was active: 95.5%. In the case of `CS(=O)(=O)N1CCN(c2ccc(NC(=O)c3ccc([N+](=O)[O-])o3)cc2)CC1`, the inhibition was inconclusive: 34.3%. In the case of `O=C(NCc1nnc(SCC(=O)N2CCCCCC2)o1)c1ccc(F)cc1`, the inhibition was inconclusive: 37.8%. For `O=C1COc2ccc(S(=O)(=O)N3CCCC3)cc2N1`, the inhibition was inconclusive: 31.9%. For `CCOC(=O)C(CC)(CC)/C(C)=N/NC(=O)CC#N`, the inhibition was inconclusive: 43.8%. With `Cc1cc(NC(=O)c2ccccc2)ccc1NC(=O)Cc1ccccc1` the inhibition was inconclusive: 26.2%. In the case of `Cc1cccc(C)c1NC(=O)COc1ccc2c(C)c(Cc3ccccc3)c(=O)oc2c1C`, the inhibition was active: 53.2%. With `Cc1ccc(S(=O)(=O)N[C@@H](Cc2ccccc2)C(=O)N2CCC(C(=O)N[C@@H](CCC(N)=O)C(=O)O)CC2)cc1` the inhibition was active: 59%. For `Cc1ccc(-c2nnc(-n3nnc4ccccc43)c3ccccc23)cc1`, the inhibition was inconclusive: 29%. With `COc1cc(/C=N/NC(=O)c2ccncc2)ccc1OC(=O)c1cc(OC)c(OC)c(OC)c1` the inhibition was inactive: 4.9%. With `NS(=O)(=O)c1ccc(N2CCOCC2)c(C(=O)NCc2cccs2)c1` the inhibition was inconclusive: 41%. In the case of `O=C(NCc1ccccc1)c1cc2ccc(O)cc2oc1=O`, the inhibition was inactive: -3.05%. In the case of `COc1ccc(NC(=O)COC(=O)c2cc(C)oc2C)c([N+](=O)[O-])c1`, the inhibition was inconclusive: 32.1%. With `Cn1c(/C(C#N)=C/c2cccc(O)c2)nc2ccccc21` the inhibition was inactive: 18.4%. For `CCN(CC)CCNC1=NCCn2c1cc1cc(OC)ccc12`, the inhibition was inconclusive: 40.1%. In the case of `Cc1ccc(Nc2nc(N)c3ccccc3n2)cc1C`, the inhibition was inactive: -2.76%. In the case of `CC1=C(C)/C(=N\OS(=O)(=O)c2ccccc2)C=CC1=O`, the inhibition was active: 55.5%. In the case of `Cn1c(CNc2ccccc2O)nc2ccccc21`, the inhibition was inactive: -3.69%. In the case of `CCCn1c(N)c(Br)c(=O)[nH]c1=O`, the inhibition was inconclusive: 42.6%. In the case of `FC(F)Sc1ccc(NC(=S)NCC2CCCCC2)cc1`, the inhibition was inactive: -9.47%. With `Cc1cccc(-n2cc(CNCCN3CCOC3=O)c(-c3cccc(F)c3)n2)c1` the inhibition was inactive: -3.16%. With `CCCn1nnc(NC(=O)C(c2ccccc2)c2ccccc2)n1` the inhibition was active: 50.2%. In the case of `Cc1ccc(S(=O)(=O)N(C)C)cc1NC(=O)CCNC(=O)c1ccco1`, the inhibition was inconclusive: 28.4%. For `COc1ccc(CNC(=S)Nc2cccc(Cl)c2)cc1`, the inhibition was active: 53.4%. For `CCOc1ccc(NC(=O)CN(C)C(=O)c2cc(S(=O)(=O)N3CCCCC3)ccc2Cl)cc1OCC`, the inhibition was active: 92.3%. For `Cc1ccc(N=C2NC(=O)C(CC(=O)O)S2)cc1` (stereo not drawn), the inhibition was inactive: 8.25%. In the case of `COc1cccc(NC(=S)NC(=O)/C=C/c2ccco2)c1`, the inhibition was active: 102%. In the case of `COc1ccccc1-c1sc2ccccc2c1-c1ccc(OCCN2CCCCC2)cc1`, the inhibition was inconclusive: 49.5%. In the case of `O=C(O)c1cccc(NC(=S)NC(NC(=O)c2ccco2)C(Cl)(Cl)Cl)c1` (stereo not drawn), the inhibition was inactive: -10.5%. In the case of `COc1ccccc1C(C)NCC(=O)Nc1ccccc1C(F)(F)F` (stereo not drawn), the inhibition was inconclusive: 23.3%. In the case of `N#CC(=C(O)CN1CCN(c2ccccc2F)CC1)c1nc(-c2ccc(Cl)cc2)cs1`, the inhibition was inactive: -17.8%. For `CCN1CCN(C(CNS(=O)(=O)c2ccc(C)cc2)c2cccnc2)CC1` (stereo not drawn), the inhibition was active: 53.2%. In the case of `COCc1c(C(=O)N/N=C\c2ccccn2)nnn1-c1nonc1N`, the inhibition was inactive: 32.2%. In the case of `Cc1c(C(=O)C(C)C)n(C)c2ccccc12`, the inhibition was active: 59.1%. For `CCCn1c(=O)[nH]c(=O)c2c1nc(-c1cc([N+](=O)[O-])ccc1Cl)n2CCOC`, the inhibition was active: 65.5%. With `NS(=O)(=O)c1ccc(-c2ccc(/C=C3\SC(=O)NC3=O)o2)cc1` the inhibition was active: 55.8%. For `OCCN1CCN(CC(O)COc2ccc3ccccc3c2)CC1` (stereo not drawn), the inhibition was inconclusive: 39.9%. For `C[C@@H](CO)NC(=O)[C@H]1O[C@@H](n2cnc3c(N)ncnc32)[C@H](O)[C@@H]1O`, the inhibition was inactive: -0.192%. In the case of `CCCC1CC(C#N)N(N(C)C)C1=C(C#N)C#N` (stereo not drawn), the inhibition was inconclusive: 43.9%. In the case of `CC(NC(=O)Cc1ccc(NC2=NC3CS(=O)(=O)CC3S2)cc1)c1ccccc1` (stereo not drawn), the inhibition was inconclusive: 36%. For `O=C(OCC(=O)N1CCN(C(=O)c2ccco2)CC1)c1c(Cl)cccc1Cl`, the inhibition was inconclusive: 34.9%. In the case of `COc1ccc(/C=c2\s/c(=C(/C#N)C(=O)NCc3ccco3)n(-c3ccccc3)c2=O)cc1`, the inhibition was inconclusive: 18.2%. With `O=C(Nc1ccc2c3c(cccc13)CC2)c1ccc(Br)o1` the inhibition was inactive: 1.69%. With `N#C/C(=C1\CCCN1)c1nc(-c2ccccc2)cs1` the inhibition was active: 61.4%. In the case of `O=[N+]([O-])c1ccc(N2CCN(Cc3ccccc3)CC2)c2c1no[n+]2[O-]`, the inhibition was active: 114%. In the case of `O=C(COc1ccc(S(=O)(=O)N2CCOCC2)cc1)Nc1ccccc1C(F)(F)F`, the inhibition was inconclusive: 39%. In the case of `COc1cc(/C=C/C(=O)OCC(=O)Nc2cc(C)c(C)cc2[N+](=O)[O-])ccc1O`, the inhibition was inconclusive: 36.8%. For `COc1ccccc1NC(=O)CSc1nnc(C)s1`, the inhibition was inconclusive: 48.3%. With `CCOC(=O)CCCCC(=O)c1[nH]c(=O)[nH]c1CSc1nc(-c2ccccc2)c(C#N)c(=O)[nH]1` the inhibition was inconclusive: 32.1%. With `COc1cc(/C=C(/C#N)C(=O)NC(C)c2ccccc2)cc(OC)c1O` (stereo not drawn) the inhibition was active: 54%. For `O=C(N/N=C/c1ccc(O)cc1O)C(=O)N/N=C/c1ccc(O)cc1O`, the inhibition was active: 62.4%. For `O=C(Nc1cccnc1Cl)c1cc(-c2ccccc2O)on1`, the inhibition was inconclusive: 25.4%. For `CC12CCC(=O)N1C(C(=O)N1CCN(S(=O)(=O)c3cccc(Cl)c3)CC1)CS2` (stereo not drawn), the inhibition was inconclusive: 30.8%. With `Cc1cc(C)cc(NC(=O)/C=C/c2ccc([N+](=O)[O-])s2)c1` the inhibition was active: 96.5%. In the case of `O=C(N=C1SCC(=O)N1c1ccccc1)c1ccco1`, the inhibition was inactive: -2.69%. In the case of `Cn1c(/C(C#N)=C(\O)c2cccc(F)c2)nc2ccccc21`, the inhibition was inactive: -0.0695%.
